PubChem BioAssay AID1259254 | NCATS | 2017

Screen: 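Finding genes that stop cells copying their DNA twice in one cycle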 (primary screen)
Cell system: human HCT116 colorectal cancer cells
Reagents: single siRNA against human genes
Duration: 3 days
Measurement: 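Nuclei stained with Hoechst and imaged; cell-cycle phase assigned by DNA content; G2 share scaled per plate, non-targeting siRNA 0%, GMNN siRNA 100%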
Reading the numbers: G2 robust z-score and G2 cells, % of GMNN control: higher = more G2 cells, more excess DNA replication; raw share of cells in G2: higher = larger share of cells with G2 DNA content
Hit rule: 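Active siRNAs have a G2 robust z of 5 or more median absolute deviations over the median, which in these data means about 38% or higher of GMNN control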
The whole screen tested about 59,000 reagents; below is a part drawn at random. About 1,550 of them (2.6%) count as active. 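G2 share is only a proxy for re-replication; each gene was hit by three separate siRNAs, and active genes were retested.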 Raw values vary from plate to plate and are shown uncorrected. Entries without a mark were called inactive. The numbers tell different reagents against one gene apart. No sequences are given here. Not given: the amount of reagent.

| gene | siRNA no. | G2 robust z-score | G2 cells, % of GMNN control | raw share of cells in G2 (%) |
| --- | --- | --- | --- | --- |
| ARHGAP18 | 1 | 0.42 | 5.92 | 6.72 |
| ARHGAP18 | 2 | -0.28 | 0.996 | 6.13 |
| ARHGAP18 | 3 | -0.448 | -0.187 | 4.89 |
| BORCS7 | 1 | -0.484 | -0.439 | 3.92 |
| BORCS7 | 2 | 1.48 | 13.4 | 7.31 |
| BORCS7 | 3 | -0.481 | -0.42 | 1.7 |
| IFITM3 | 1 | 1.12 | 10.8 | 10.2 |
| IFITM3 | 2 | 0.549 | 6.83 | 6.8 |
| IFITM3 | 3 | 0.403 | 5.8 | 5.52 |
| MRM1 | 1 | 1.06 | 10.4 | 8.78 |
| MRM1 | 2 | -0.433 | -0.0771 | 4.27 |
| MRM1 | 3 | -0.391 | 0.214 | 2.44 |
| HSD17B2 | 1 | -1.25 | -5.82 | 3.47 |
| HSD17B2 | 2 | 0.0938 | 3.63 | 5.53 |
| HSD17B2 | 3 | 0.236 | 4.63 | 6.73 |
| MBP | 1 | 0.592 | 7.13 | 8.01 |
| MBP | 2 | -1.06 | -4.5 | 2.44 |
| MBP | 3 | 1.66 | 14.6 | 8.65 |
| ADGRF4 | 1 | -1.34 | -6.47 | 3.53 |
| ADGRF4 | 2 | 0.607 | 7.24 | 7.05 |
| ADGRF4 | 3 | -0.618 | -1.38 | 2.85 |
| PNLIP | 1 | -0.0344 | 2.73 | 5.92 |
| PNLIP | 2 | 0.228 | 4.57 | 6.42 |
| PNLIP | 3 | -0.344 | 0.548 | 4.33 |
| CHRNB2 | 1 | 1.61 | 14.3 | 10.5 |
| CHRNB2 | 2 | -0.562 | -0.987 | 4.45 |
| CHRNB2 | 3 | -0.509 | -0.614 | 4.14 |
| ZNF691 | 1 | 0.21 | 4.44 | 4.36 |
| ZNF691 | 2 | -0.541 | -0.837 | 5.53 |
| ZNF691 | 3 | -0.547 | -0.881 | 3.36 |
| HDAC3 | 1 | 2.1 | 17.7 | 11.1 |
| HDAC3 | 2 | 1.59 | 14.2 | 10.2 |
| HDAC3 | 3 | 0.268 | 4.85 | 6.74 |
| SPATA24 | 1 | 0.0716 | 3.47 | 3.86 |
| SPATA24 | 2 | -0.14 | 1.98 | 4.31 |
| SPATA24 | 3 | 0.485 | 6.38 | 5.1 |
| VSIR | 1 | -1.01 | -4.15 | 1.6 |
| VSIR | 2 | -0.486 | -0.449 | 4.39 |
| VSIR | 3 | 2.6 | 21.2 | 14.1 |
| ZNF205 | 1 | -0.411 | 0.0742 | 3.55 |
| ZNF205 | 2 | 0.743 | 8.19 | 9.64 |
| ZNF205 | 3 | 0.261 | 4.81 | 5.35 |
| ADK | 1 | 0.587 | 7.1 | 7.95 |
| ADK | 2 | -0.041 | 2.68 | 6.31 |
| ADK | 3 | -0.608 | -1.31 | 3.56 |
| TMEM273 | 1 | 0.772 | 8.4 | 5.42 |
| TMEM273 | 2 | 0.361 | 5.51 | 5.58 |
| TMEM273 | 3 | -0.625 | -1.43 | 2.48 |
| RPSAP20 | 1 | 0.14 | 3.95 | 4.01 |
| RPSAP20 | 2 | 0.38 | 5.64 | 6.3 |
| RPSAP20 | 3 | 2.04 | 17.3 | 8.6 |
| FCRL3 | 1 | 4.31 | 33.3 | 17 |
| FCRL3 | 2 | 0.779 | 8.45 | 8.59 |
| FCRL3 | 3 | -0.297 | 0.879 | 6.08 |
| C19orf84 | 1 | 1.61 | 14.3 | 8.04 |
| C19orf84 | 2 | -1.28 | -6.02 | 1.81 |
| C19orf84 | 3 | -0.195 | 1.59 | 3.41 |
| RHBDD3 | 1 | -0.0903 | 2.33 | 4.11 |
| RHBDD3 | 2 | 2.52 | 20.7 | 12.2 |
| RHBDD3 | 3 | -0.393 | 0.202 | 4.03 |
| ADD1 | 1 | -1.14 | -5.05 | 3 |
| ADD1 | 2 | 0.372 | 5.59 | 7.06 |
| ADD1 | 3 | 1.99 | 16.9 | 10.3 |
| BRK1 | 1 | -0.874 | -3.18 | 3.3 |
| BRK1 | 2 | -0.36 | 0.437 | 4.32 |
| BRK1 | 3 | 1.17 | 11.2 | 6.71 |
| NXN | 1 | 0.204 | 4.4 | 7.47 |
| NXN | 2 | -0.269 | 1.08 | 4.73 |
| NXN | 3 | -0.232 | 1.33 | 4.71 |
| DOCK6 | 1 | -0.336 | 0.605 | 5.9 |
| DOCK6 | 2 | 1.27 | 11.9 | 8.57 |
| DOCK6 | 3 | 1.65 | 14.6 | 9.53 |
| LINC03086 | 1 | -0.115 | 2.16 | 4.34 |
| LINC03086 | 2 | 0.561 | 6.91 | 7.6 |
| LINC03086 | 3 | 0.35 | 5.43 | 5.63 |
| KLHL24 | 1 | -0.0323 | 2.74 | 4.1 |
| KLHL24 | 2 | -0.696 | -1.93 | 2.91 |
| KLHL24 | 3 | 0.999 | 10 | 8.48 |
| KCTD3 | 1 | 0.337 | 5.34 | 7.23 |
| KCTD3 | 2 | 3.68 | 28.8 | 14.5 |
| KCTD3 | 3 | -0.0715 | 2.46 | 5.34 |
| KCNA10 | 1 | 4.65 | 35.7 | 18.3 |
| KCNA10 | 2 | 0.957 | 9.7 | 8.06 |
| KCNA10 | 3 | 0.135 | 3.92 | 5.9 |
| ADAMTS18 | 1 | 0.0377 | 3.23 | 6.96 |
| ADAMTS18 | 2 | -0.00278 | 2.95 | 5.45 |
| ADAMTS18 | 3 | 0.17 | 4.16 | 5.81 |

12 entries from above, sorted by “G2 cells, % of GMNN control”, highest first.
| gene | siRNA no. | G2 robust z-score | G2 cells, % of GMNN control | raw share of cells in G2 (%) |
| --- | --- | --- | --- | --- |
| CHRNB2 | 1 | 1.61 | 14.3 | 10.5 |
| ADGRF4 | 2 | 0.607 | 7.24 | 7.05 |
| PNLIP | 2 | 0.228 | 4.57 | 6.42 |
| ZNF691 | 1 | 0.21 | 4.44 | 4.36 |
| PNLIP | 1 | -0.0344 | 2.73 | 5.92 |
| PNLIP | 3 | -0.344 | 0.548 | 4.33 |
| CHRNB2 | 3 | -0.509 | -0.614 | 4.14 |
| ZNF691 | 2 | -0.541 | -0.837 | 5.53 |
| ZNF691 | 3 | -0.547 | -0.881 | 3.36 |
| CHRNB2 | 2 | -0.562 | -0.987 | 4.45 |
| ADGRF4 | 3 | -0.618 | -1.38 | 2.85 |
| ADGRF4 | 1 | -1.34 | -6.47 | 3.53 |
